Experimental data published in US20230203081A1, “LINCOSAMIDE ANTIBIOTICS AND USES THEREOF” (President and Fellows of Harvard College, priority 2020, published 2023).

Experiments:
[1] = in vivo; conditions: mouse, 60 mg/kg
[2] = Plasma protein binding, species m; type: in vitro ADME; conditions: mouse
[3] = Plasma protein binding, species h; type: in vitro ADME; conditions: human

## CCC[C@@H]1C[C@@H](C(=O)N[C@@H]([C@H]2O[C@H](SC)[C@H](O)[C@@H](O)[C@H]2O)[C@H](C)Cl)N(C)C1 [Clindamycin, clindamycin, reference compound]
[1]; iv
  AUC: 2100 ± 500 ng·h/mL
  Cmax: 2900 ± 700 ng/mL
  MRT: 54 ± 18 min
[1]; po
  AUC: 510 ± 90 ng·h/mL
  Cmax: 520 ± 100 ng/mL
[2]
  fraction unbound: 0.28
[3]
  fraction unbound: 0.13
